Test system: subjects with CHD having decreased RBC K content
Assay type: in vivo, human
Details: 1st month
Description: Subjects were evaluated by clinical angina (CCS angina Class II-IV), dyspnea, or arrhythmia.
Exclusion Criteria: Evidence of acute coronary syndrome, AMI, stroke or cardiac arrhythmias; NYHA class III-IV of heart failure, hyperkalemia. Informed consent was obtained in all. Other non CHD causes of chest pain, dyspnea, and arrhythmia had been ruled out.
In addition to that, a single dose of calcium gluconolactate (1 g/daily) was given to all subjects having plasma ionized ICa^2+ ≦1.1 mmol/L, while other Laboratory correction and drug assessment were conducted across the first 3-month period (Table 1) Safety control (ECG, Ion Transport Laboratory, BIA, Non-Invasive Hemodynamic) was obtained at 1, 3 and 6 months and 1 year. Clinical control was obtained weekly in the first month or as needed for physician or patient symptoms; thereafter a 3, 6 and 12 months.
The subjects were taken off any drug that might impair RBC transport, such as digitalis, β-blockers, or NSAID's, in subjects with RBC K^+ ≦90.2 mmol/L cell. Oral calcium gluconolactate (1 g/daily) was administered in all subjects with plasma ionized calcium ≦1.1 mmol/L. Subjects had correction of other plasma electrolyte abnormalities. The subjects were taken off any drug that may affect ventricular repolarization, as digoxin, calcium channel blockers (CCB), diuretics, β-blockers, or the like. […] Anti-aggregants or aspirin in subjects free of angina were discontinued after the 3rd month of treatment. […]

Compound: Cl.NC(N)=NC(=O)c1nc(Cl)c(N)nc1N.O.O [Amiloride, 3,5-diamino-6-chloro-N-(diaminomethylene) pyrazinecarboxamide monohydrochloride, dihydrate]
- BIA Total Body Water and FFM (Fat-Free-Mass): significantly decreased
- plasma ICa2+: ≥ 1.05 mmol/L
- urinary Na+/K+ rate excretion: decreased

— patent US20090062309A1, “Therapeutic compositions for the treatment of cardiovascular diseases and methods for use therefor” (priority 2007, published 2009)
